PubChem BioAssay AID1224828 | NIAID – 2016

- Purpose: 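Knock-downs that increase or decrease LPS-induced p65 nuclear translocation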 (primary screen)
- System: mouse RAW264.7 G9 macrophage reporter cells (GFP-p65, Tnf promoter-mCherry)
- Reagent: siRNA pool against mouse genes, 100 nM
- Timing: 2 days siRNA transfection, then 40 min LPS before fixation
- Challenge: LPS (Salmonella minnesota R595) at 10 ng/ml
- Read-out: 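Imaged p65 nuclear translocation ratio, normalised to the plate median, converted to robust z-scores and averaged across two replicates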
- Scale: p65 translocation robust z-score: higher = more nuclear NF-kappaB p65 after LPS than the plate median; nuclear/cytoplasmic p65 ratio: higher = more nuclear NF-kappaB p65
- Call rule: 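Called active when z exceeds 3.3 or falls under -1.56 (median of Tlr4 controls), giving activity score of at least 50; no calls for control wells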
- Meaning of the calls: active = hit (p65 shift raised or lowered); inactive = no clear change
This is an unselected part of about 17,000 reagents. Over the whole deposit, 762 (4.5%) got an active call. 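Active calls include both raised and lowered p65 entry, mostly lowered; wells with fewer than 50 cells lack a z-score.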 Raw values vary from plate to plate and are shown uncorrected. Entries without a mark were called inactive. The numbers tell different reagents against one gene apart. Some reagents were tested in more than one well and are listed for each.

target gene | reagent | p65 translocation robust z-score | nuclear/cytoplasmic p65 ratio, rep 1 | nuclear/cytoplasmic p65 ratio, rep 2 | low cell count flag
Mslnl | 1 | – | 1.26 | 1.21 | fewer than 50 cells per well; well left out of scoring
Grap2 | 1 | -0.53 | 1.29 | 1.28 | enough cells to score
Mrpl52 | 1 | 1.12 | 1.98 | 1.75 | enough cells to score
Wdr17 | 1 | 0.16 | 1.47 | 1.24 | enough cells to score
Tars3 | 1 | -0.81 | 1.32 | 1.37 | enough cells to score
Or13p4 | 1 | 2.25 | 1.38 | 1.72 | enough cells to score
Cfp | 1 | 0.58 | 1.58 | 1.44 | enough cells to score
Gli2 | 1 | 0.14 | 1.56 | 1.29 | enough cells to score
Slco1c1 | 1 | – | 1.62 | 1.36 | fewer than 50 cells per well; well left out of scoring
Kif9 | 1 | 0.42 | 1.59 | 1.39 | enough cells to score
Asic4 | 1 | -0.11 | 1.57 | 1.68 | enough cells to score
Etnppl | 1 | -1.46 | 1.28 | 1.57 | enough cells to score
Npc2 | 1 | 0.8 | 1.6 | 1.48 | enough cells to score
Or4f54 | 1 | -0.53 | 1.61 | 1.28 | enough cells to score
Nup160 | 1 | -1.12 | 1.63 | 1.29 | enough cells to score
Crybg3 | 1 | 1.81 | 1.67 | 1.78 | enough cells to score
Cyp7b1 | 1 | -0.05 | 1.45 | 1.39 | enough cells to score
Col27a1 | 1 | -0.72 | 1.49 | 1.65 | enough cells to score
Tpm2 | 1 | 0.15 | 1.49 | 1.57 | enough cells to score
Sobp | 1 | – | 1.17 | 1.4 | fewer than 50 cells per well; well left out of scoring
Racgap1 | 1 | – | 1.05 | 1.02 | fewer than 50 cells per well; well left out of scoring
H1f2 | 1 | -0.45 | 1.17 | 1.33 | enough cells to score
Or6aa1 | 1 | – | 1.49 | 1.36 | fewer than 50 cells per well; well left out of scoring
Brs3 | 1 | -0.4 | 1.42 | 1.55 | enough cells to score
Tbc1d20 | 1 | – | 1.21 | 1.05 | fewer than 50 cells per well; well left out of scoring
Fgd5 | 1 | -1.69 (active) | 1.32 | 1.25 | enough cells to score
Cyp3a16 | 1 | -0.09 | 1.66 | 1.66 | enough cells to score
Csnk2a2 | 1 | -1.28 | 1.55 | 1.17 | enough cells to score
Camp | 1 | -0.95 | 1.47 | 1.47 | enough cells to score
Or4c29 | 1 | – | 1.49 | 1.55 | fewer than 50 cells per well; well left out of scoring
Klf13 | 1 | 0.43 | 1.49 | 1.48 | enough cells to score
Gars1 | 1 | -0.39 | 1.27 | 1.43 | enough cells to score

4 entries from above in another layout.
target gene,reagent,p65 translocation robust z-score,"nuclear/cytoplasmic p65 ratio, rep 1","nuclear/cytoplasmic p65 ratio, rep 2",low cell count flag
Or6aa1,1,,1.49,1.36,fewer than 50 cells per well; well left out of scoring
Brs3,1,-0.4,1.42,1.55,enough cells to score
Tbc1d20,1,,1.21,1.05,fewer than 50 cells per well; well left out of scoring
Fgd5,1,-1.69 (active),1.32,1.25,enough cells to score

Further reagents follow.
target gene | reagent | p65 translocation robust z-score | nuclear/cytoplasmic p65 ratio, rep 1 | nuclear/cytoplasmic p65 ratio, rep 2 | low cell count flag
Timm8b | 1 | 0.94 | 1.49 | 1.29 | enough cells to score
Gbp7 | 1 | -0.79 | 1.24 | 1.43 | enough cells to score
Lyplal1 | 1 | 0.01 | 1.73 | 1.53 | enough cells to score
Snrnp35 | 1 | – | 1.33 | 1.1 | fewer than 50 cells per well; well left out of scoring
Gjb4 | 1 | -1.75 (active) | 1.34 | 1.17 | enough cells to score
Gprc5c | 1 | -1.3 | 1.33 | 1.39 | enough cells to score
Or13p8 | 1 | – | 1.54 | 1.44 | fewer than 50 cells per well; well left out of scoring
Cinp | 1 | -1.82 (active) | 1.51 | 1.16 | enough cells to score
Cinp | 1 | – | 1.02 | 0.996 | fewer than 50 cells per well; well left out of scoring
E2f1 | 1 | -0.2 | 1.46 | 1.35 | enough cells to score
Or13a25 | 1 | -0.72 | 1.34 | 1.01 | enough cells to score
Glyr1 | 1 | – | 1.27 | 1.21 | fewer than 50 cells per well; well left out of scoring
Papolg | 1 | – | 1.51 | 1.63 | fewer than 50 cells per well; well left out of scoring
Mmp1b | 1 | -0.11 | 1.8 | 1.54 | enough cells to score
Usp9y | 1 | -0.37 | 1.46 | 1.43 | enough cells to score
Ankk1 | 1 | -0.74 | 1.56 | 1.3 | enough cells to score
Slc39a14 | 1 | 0.12 | 1.46 | 1.23 | enough cells to score
Cphx1 | 1 | -0.12 | 1.38 | 1.55 | enough cells to score
Itpk1 | 1 | -0.94 | 1.4 | 1.26 | enough cells to score
Pcnx3 | 1 | – | 1.25 | 1.07 | fewer than 50 cells per well; well left out of scoring
Pla2r1 | 1 | -0.47 | 1.46 | 1.32 | enough cells to score
Cisd2 | 1 | – | 1.2 | 1.35 | fewer than 50 cells per well; well left out of scoring
Fry | 1 | -0.63 | 1.45 | 1.49 | enough cells to score
Fry | 2 | -0.47 | 1.38 | 1.46 | enough cells to score
Katna1 | 1 | 0.79 | 1.66 | 1.54 | enough cells to score
Rps20 | 1 | -1.41 | 1.19 | 1.1 | enough cells to score
Pde4b | 1 | 0.83 | 1.57 | 1.52 | enough cells to score
